From US11617796B2 (CAREGEN CO., LTD., priority 2016, dated 2023)

Experiment: general procedure: Fmoc solid-phase peptide synthesis; CTL resin; Bop/HoBt/DIEA
Conditions: whole synthesis

Question: For “H-RQTRVQRCHC-OH (cysteine pairing not given here)”, which crude mass is on record?
Answer: Its crude mass is 0.65 g.

Question: And the crude yield (scale of the general procedure 700 mg resin)?
Answer: The crude yield was 92.6%.
